These are yes or no findings as the source states them, for the method shown. Binding seen in cells or lysates may run through a third protein. Some binding calls cover weakened binding; strength is not graded here.
The substances below were run against DNA topoisomerase I (TOP1), full-length recombinant (UniProt P11387) (assay: co-IP; 35S-methionine-labelled IVTT BLM fragments incubated with purified full-length recombinant TOP1, then α-TOP1 or isotype control antibody, 4 °C, 3 h; 10 mM Tris-HCl pH 7.5, 150 mM NaCl, 1 mM EDTA, 10% glycerol, 1 mM DTT, 0.1% Tween-20, 0.1 mg/ml BSA; precipitated with Dynabeads Protein G; phosphor imaging, % relative IP against 997–1417; only the target purified).

By UniProt entry, the sequences of proteins in these tests, tags left out. Residues count along the entry.
UniProt P11387: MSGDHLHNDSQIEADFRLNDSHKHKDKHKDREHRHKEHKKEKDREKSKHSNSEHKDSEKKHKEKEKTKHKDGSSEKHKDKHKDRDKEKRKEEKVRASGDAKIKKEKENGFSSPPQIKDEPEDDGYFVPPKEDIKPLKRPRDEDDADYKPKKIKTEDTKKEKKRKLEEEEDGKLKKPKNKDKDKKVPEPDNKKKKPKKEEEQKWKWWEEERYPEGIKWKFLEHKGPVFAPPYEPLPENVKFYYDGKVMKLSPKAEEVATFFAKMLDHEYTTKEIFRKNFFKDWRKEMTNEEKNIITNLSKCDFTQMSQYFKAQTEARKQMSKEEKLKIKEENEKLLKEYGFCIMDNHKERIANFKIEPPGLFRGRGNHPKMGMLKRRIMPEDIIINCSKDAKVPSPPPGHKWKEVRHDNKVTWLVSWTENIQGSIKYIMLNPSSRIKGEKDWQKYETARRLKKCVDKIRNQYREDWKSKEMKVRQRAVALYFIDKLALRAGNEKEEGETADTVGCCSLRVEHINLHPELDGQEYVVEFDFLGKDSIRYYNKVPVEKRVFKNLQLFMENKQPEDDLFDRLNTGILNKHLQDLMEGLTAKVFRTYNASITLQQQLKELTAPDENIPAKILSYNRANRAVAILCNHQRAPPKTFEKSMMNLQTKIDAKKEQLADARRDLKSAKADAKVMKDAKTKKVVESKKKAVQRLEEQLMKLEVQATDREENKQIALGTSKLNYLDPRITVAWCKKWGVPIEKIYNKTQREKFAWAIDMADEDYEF
BLM C-terminus (amino acids 997–1417) (P54132, residues 997-1417): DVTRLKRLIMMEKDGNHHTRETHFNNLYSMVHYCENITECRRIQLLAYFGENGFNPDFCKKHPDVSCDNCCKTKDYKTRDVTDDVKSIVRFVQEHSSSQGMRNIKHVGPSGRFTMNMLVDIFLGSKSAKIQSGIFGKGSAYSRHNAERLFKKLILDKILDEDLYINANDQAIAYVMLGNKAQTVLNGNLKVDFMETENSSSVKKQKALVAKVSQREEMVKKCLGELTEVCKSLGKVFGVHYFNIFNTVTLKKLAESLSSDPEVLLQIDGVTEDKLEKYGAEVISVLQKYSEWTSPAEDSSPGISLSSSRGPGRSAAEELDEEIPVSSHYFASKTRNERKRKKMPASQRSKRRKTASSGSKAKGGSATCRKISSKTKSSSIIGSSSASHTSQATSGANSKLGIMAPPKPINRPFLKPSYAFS
BLM fragment 997–1349 (P54132, residues 997-1349): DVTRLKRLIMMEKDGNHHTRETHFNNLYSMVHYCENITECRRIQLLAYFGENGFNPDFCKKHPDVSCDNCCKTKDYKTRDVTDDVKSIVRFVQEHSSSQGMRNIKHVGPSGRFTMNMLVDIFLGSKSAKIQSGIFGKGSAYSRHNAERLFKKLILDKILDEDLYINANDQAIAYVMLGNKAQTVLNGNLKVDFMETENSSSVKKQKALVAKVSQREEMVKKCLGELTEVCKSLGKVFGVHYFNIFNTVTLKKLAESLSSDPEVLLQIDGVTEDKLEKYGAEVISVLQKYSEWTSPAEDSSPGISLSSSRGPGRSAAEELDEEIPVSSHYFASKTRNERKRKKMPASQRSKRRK
BLM fragment 1120–1417 (P54132, residues 1120-1417): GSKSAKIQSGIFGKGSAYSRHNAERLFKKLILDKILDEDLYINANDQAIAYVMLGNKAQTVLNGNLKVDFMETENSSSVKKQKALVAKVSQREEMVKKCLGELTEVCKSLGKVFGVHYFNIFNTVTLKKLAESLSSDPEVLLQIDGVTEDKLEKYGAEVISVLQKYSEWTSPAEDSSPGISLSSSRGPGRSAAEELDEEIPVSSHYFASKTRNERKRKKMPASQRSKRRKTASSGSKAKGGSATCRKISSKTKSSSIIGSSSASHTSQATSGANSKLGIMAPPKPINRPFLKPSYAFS

| Substance | binding |
| --- | --- |
| BLM fragment 997–1349 (from UniProt P54132 997-1349) (domain or fragment) | binds |
| BLM C-terminus (amino acids 997–1417) (from UniProt P54132 997-1417) (domain or fragment) | binds |
| BLM fragment 1120–1417 (from UniProt P54132 1120-1417) (domain or fragment) | binds |
